Assays:
[1] = Lithographic evaluation using positive tone development; conditions: photoresist with polymer A2, 193 nm, 90 nm L/S pattern, 0.26 N TMAH developer
[2] = Lithographic evaluation using negative tone development; conditions: photoresist with polymer A3, immersion ArF, n-butyl acetate developer

| Compound | CD (critical dimension) [1] [nm] | E0 (dose to clear) [1] [mJ/cm^2] | EL (exposure latitude) [1] [%] | Es (sizing energy) [1] [mJ/cm^2] | LWR (line width roughness) [1] [nm] | MEF (mask error factor) [1] | CDU (Critical Dimension Uniformity) [2] [nm] | EL (exposure latitude) [2] [%] | Es (optimum energy to print 60/90 nm contact holes) [2] [mJ/cm^2] |
| --- | --- | --- | --- | --- | --- | --- | --- | --- | --- |
| 4-(2-oxo-2-(2,2,2′,2′-tetramethyl-4,4′-bis(1,3-dioxolan)-5-yl-methoxyethoxy)phenyl)diphenylsulfonium 1-adamantyl-3,3,4,4-tetrafluorobutane sulfonate [PAG-A1] | 91.27 | 10.0 | 8.64 | 48.0 | 12.8 | 3.67 |  |  |  |
| CC1(C)OCC(C2OC(C)(C)OC2COC(=O)COc2ccc([S+](c3ccccc3)c3ccccc3)cc2)O1.O=C(OCC12CC3CC(CC(O)(C3)C1)C2)C(F)(F)S(=O)(=O)[O-] (stereo not drawn) [PAG-A2, 4-(2-oxo-2-(2,2,2′,2′-tetramethyl-4,4′-bis(1,3-dioxolan)-5-yl-methoxyethoxy)phenyl)diphenylsulfonium 1,1-difluoro-2-(3-hydroxyadamantan-1-yl-methoxy)-2-oxoethanesulfonate] | 91.41 | 17.4 | 8.10 | 67.0 | 13.2 | 3.53 | 6.42 | 9.9 | 40.1 |
| Triphenylsulfonium 1,1-difluoro-2-((-3-hydroxyadamantan-1-yl)methoxy)-2-oxoethanesulfonate [C. PAG 2, reference compound] | 91.49 | 9.6 | 9.47 | 45.9 | 12.4 | 3.45 | 7.12 | 9.9 | 29.6 |
| Triphenylsulfonium perfluorobutanesulfonate [C. PAG 1, reference compound] | 91.62 | 5.6 | 6.99 | 24.6 | 12.0 | 4.04 |  |  |  |

From patent publication US9046767B2, “Photoacid generator, photoresist, coated substrate, and method of forming an electronic device” (ROHM AND HAAS ELECTRONIC MATERIALS LLC, priority 2013, dated 2015)
